{"source": "patent US20190117653A1", "about": "“SYSTEMS AND METHODS FOR TREATING BACTERIAL INFECTION” (priority 2016, published 2019)", "test_system": "common Gram-positive and Gram-negative respiratory bacteria", "experiment": "pulmonary surfactant interaction, overall effect of BPS on MIC and MICRZ", "assay_type": "cell-based", "conditions": "2.5% (v/v) BPS; all tested strains or isolates", "protocol": "Antibacterial susceptibility testing was measured by JMI Labs (North Liberty, Iowa, USA). […] These clinical isolates were collected from US (n=4), Mexico (n=2), and Italy (n=1). Susceptibility testing was performed by broth microdilution in accordance with the Clinical and Laboratory and Standards Institute (CLSI) guidelines M07-A10 (2015) and the standard operating procedures at JMI laboratories. Minimum inhibitory concentrations (MICS) were based on CLSI criteria (2015). There are no published breakpoints for iclaprim. E. coli, K. pneumoniae, M. catarrhalis, E. faecalis, and S. aureus were tested in cation-adjusted Mueller-Hinton broth (CA-MHB). […]\nBecause bovine pulmonary surfactant can introduce cloudiness to the MIC testing media, antimicrobial growth inhibition was also evaluated using the colorimetric metabolic indicator resazurin (Camlab Ltd., Cambridge, UK). […] Growth inhibition was then evaluated as a visible color change from blue (no growth) to pink (robust growth) and recorded as a MIC1z value.\nThe MICs of iclaprim, levofloxacin, and daptomycin were determined against Gram-positive and Gram-negative isolates.\nA new vial of bovine pulmonary surfactant (BPS; Survanta®; Abbott Laboratories, Columbus, Ohio) was utilized for each independent experiment. […] MICs of daptomycin were determined in CAMHB with the Ca^2+ content adjusted to 50 mg/L.", "note": "At least one structure is not confirmed: it was looked up by name or label, or the drawing left a doubt.", "data": [{"smiles": "C[C@H]1COc2c(N3CCN(C)CC3)c(F)cc3c(=O)c(C(=O)O)cn1c23", "note": "[levofloxacin]", "values": [{"measurement": "effect of BPS on MIC and MICRZ values", "value": "little or no effect"}]}]}
